Experimental data: PubChem BioAssay AID743121 (NCATS, 2013)

Test: 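Genes whose silencing strengthens cell killing by camptothecin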 (primary screen)
Cell system: MDA-MB-231 cells, a human breast cancer line
Reagent: single siRNA against human genes, 20 nM siRNA (0.8 pmol per well)
Duration: 120 h (drug added 48 h after transfection, read 72 h later)
Treatment: camptothecin 20 nM (about EC30) for 72 h; vehicle 0.1% DMSO in parallel plates
Measurement: 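Cell viability by ATP luminescence (CellTiter-Glo) as % of non-targeting siRNA wells, and the log2 ratio of viability without drug over viability with camptothecin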
Reading the numbers: log2 vehicle/camptothecin viability: higher = stronger sensitisation to camptothecin; viability with camptothecin and viability without drug: higher = more viable cells
Active means: 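Active genes have an RSA gene-level p-value below 0.001, computed from the ratios of their separate siRNAs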
In all, the deposit lists about 26,000 reagents; this is a part drawn at random. Of all reagents, 167 (0.63%) got an active call. 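Calls are per gene from RSA p-values that are not deposited; an individual active-marked siRNA can sensitise only weakly.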 A number with no mark means an inactive call. The numbers tell different reagents against one gene apart.

gene,siRNA no.,log2 vehicle/camptothecin viability,viability with camptothecin (% of control),viability without drug (% of control)
OR6B2,1,-0.595,44.3,29.3
OR6B2,2,-0.386,110,84.2
OR6B2,3,0.283,44.5,54.2
OR6B2,4,-0.0249,16.6,16.3
NRG1,1,0.073,69.7,73.3
NRG1,2,-0.0405,54.4,52.9
NRG1,3,-0.138,87.7,79.7
NRG1,4,-0.249,45,37.8
NRG1,5,0.214,74.7,86.6
NRG1,6,-0.253,86.3,72.4
NRG1,7,-0.17,42.1,37.4
NRG1,8,-0.167,89.2,79.5
LRP3,1,-0.439,38.9,28.7
LRP3,2,0.00899,108,109
LRP3,3,-0.132,46.6,42.5
LRP3,4,0.336,49.7,62.8
TOMM20L,1,0.0906,94.2,100
TOMM20L,2,-0.253,129,108
TOMM20L,3,-0.0169,102,101
TOMM20L,4,-0.336,87.7,69.5
CASQ2,1,0.17,10.5,11.9
CASQ2,2,0.0229,81.5,82.8
CASQ2,3,0.0871,33.6,35.7
CASQ2,4,-0.307,146,118
ADGRL1,1,0.344,37.9,48.1
ADGRL1,2,-0.204,69.8,60.6
ADGRL1,3,-0.0135,95.7,94.8
ADGRL1,4,0.0266,59.4,60.5

Continued, starting with the last 6 of the part before.
gene,siRNA no.,log2 vehicle/camptothecin viability,viability with camptothecin (% of control),viability without drug (% of control)
CASQ2,3,0.0871,33.6,35.7
CASQ2,4,-0.307,146,118
ADGRL1,1,0.344,37.9,48.1
ADGRL1,2,-0.204,69.8,60.6
ADGRL1,3,-0.0135,95.7,94.8
ADGRL1,4,0.0266,59.4,60.5
UBC,1,0.165,28.1,31.5
UBC,2,0.146,64.5,71.4
UBC,3,0.588,23.3,35
CLEC4E,1,0.0877,53.9,57.3
CLEC4E,2,0.0802,74.3,78.6
CLEC4E,3,-0.138,111,101
CLEC4E,4,-0.237,75.7,64.3
PRSS48,1,-1.47,61.6,22.2
PRSS48,2,-0.0388,92.4,89.9
PRSS48,3,-0.147,68.2,61.6
PRSS48,4,0.346,23.3,29.6
F9,1,0.00385,102,102
F9,2,-0.0635,62.5,59.8
F9,3,-0.0588,84.7,81.3
F9,4,-0.0113,61.9,61.4
LRWD1,1,-0.242,98.8,83.5
LRWD1,2,-0.237,49.6,42.1
LRWD1,3,-0.199,92.9,81
LRWD1,4,-0.329,76.1,60.6
